Assay results published in paper PMC11905417.
These are yes or no findings as the source states them, for the method shown. Binding seen in cells or lysates may run through a third protein. Some binding calls cover weakened binding; strength is not graded here.

The chains behind the UniProt entries cited, without tags or fusion partners.
UniProt P33552: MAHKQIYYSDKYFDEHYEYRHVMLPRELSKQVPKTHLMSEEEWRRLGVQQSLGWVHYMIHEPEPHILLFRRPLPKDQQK

Biological target: T1, thioredoxin (TXN) (human (endogenous in MM cells: MM.1S, RPMI-8226)) (UniProt P10599)
T1 sequence: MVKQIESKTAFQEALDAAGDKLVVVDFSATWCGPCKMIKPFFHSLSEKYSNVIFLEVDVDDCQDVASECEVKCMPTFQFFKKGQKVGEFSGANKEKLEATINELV
Test: co-IP; MM cells lysed with NP-40 on ice; 4 ug anti-TXN antibody (IgG as control) overnight at 4°C, magnetic beads 4 h at 4°C, washed with NP-40 lysis buffer; detection by western blot

binding: binds
Substance: cyclin-dependent kinase regulatory subunit 2 (CKS2) (from UniProt P33552 1-79)
